Assay: Skin staining test
Format: in vivo, human
Set-up: key: 1: no change from pre-washed color; 2: slight removal of color; 3: removal of about 50% of color; 4: less than 25% color remaining; 5: slight to no stain remaining
Settings: palm of volunteer, dried 15 minutes, washed with liquid soap and warm water; visual rating

Molecule: CN(C)c1ccc(C(=C2C=CC(=[N+](C)C)C=C2)c2ccccc2)cc1 [Comp. Colorant 4, Basic Green 4, reference compound]
- Skin staining Rating Scale Value: 3

Molecule: Phenyl-methyliumylidene-di(4,1-phenyleneamino)N,N-polyethyleneoxy(5), Chloride [Colorant 8]
- Skin staining Rating Scale Value: 5

Molecule: Phenyl-methyliumylidene-di(4,1-phenyleneamino)N,N-polyethyleneoxy(10), Chloride [Colorant 1]
- Skin staining Rating Scale Value: 5

Reference: US20080113868A1, “Colorant compositions and their use as pH sensitive color indicators” (priority 2006, published 2008)
